Measured values: paper PMC9935549
No constants are given. Whether binding was seen depends on the method and setting. Some results given as binding are weak or reduced against the parent protein; the word gives no strength. For some of these results: Where a sequence is shown, tags or fusion partners need not be part of it.

The chains behind the UniProt entries cited, without tags or fusion partners.
UniProt O75533: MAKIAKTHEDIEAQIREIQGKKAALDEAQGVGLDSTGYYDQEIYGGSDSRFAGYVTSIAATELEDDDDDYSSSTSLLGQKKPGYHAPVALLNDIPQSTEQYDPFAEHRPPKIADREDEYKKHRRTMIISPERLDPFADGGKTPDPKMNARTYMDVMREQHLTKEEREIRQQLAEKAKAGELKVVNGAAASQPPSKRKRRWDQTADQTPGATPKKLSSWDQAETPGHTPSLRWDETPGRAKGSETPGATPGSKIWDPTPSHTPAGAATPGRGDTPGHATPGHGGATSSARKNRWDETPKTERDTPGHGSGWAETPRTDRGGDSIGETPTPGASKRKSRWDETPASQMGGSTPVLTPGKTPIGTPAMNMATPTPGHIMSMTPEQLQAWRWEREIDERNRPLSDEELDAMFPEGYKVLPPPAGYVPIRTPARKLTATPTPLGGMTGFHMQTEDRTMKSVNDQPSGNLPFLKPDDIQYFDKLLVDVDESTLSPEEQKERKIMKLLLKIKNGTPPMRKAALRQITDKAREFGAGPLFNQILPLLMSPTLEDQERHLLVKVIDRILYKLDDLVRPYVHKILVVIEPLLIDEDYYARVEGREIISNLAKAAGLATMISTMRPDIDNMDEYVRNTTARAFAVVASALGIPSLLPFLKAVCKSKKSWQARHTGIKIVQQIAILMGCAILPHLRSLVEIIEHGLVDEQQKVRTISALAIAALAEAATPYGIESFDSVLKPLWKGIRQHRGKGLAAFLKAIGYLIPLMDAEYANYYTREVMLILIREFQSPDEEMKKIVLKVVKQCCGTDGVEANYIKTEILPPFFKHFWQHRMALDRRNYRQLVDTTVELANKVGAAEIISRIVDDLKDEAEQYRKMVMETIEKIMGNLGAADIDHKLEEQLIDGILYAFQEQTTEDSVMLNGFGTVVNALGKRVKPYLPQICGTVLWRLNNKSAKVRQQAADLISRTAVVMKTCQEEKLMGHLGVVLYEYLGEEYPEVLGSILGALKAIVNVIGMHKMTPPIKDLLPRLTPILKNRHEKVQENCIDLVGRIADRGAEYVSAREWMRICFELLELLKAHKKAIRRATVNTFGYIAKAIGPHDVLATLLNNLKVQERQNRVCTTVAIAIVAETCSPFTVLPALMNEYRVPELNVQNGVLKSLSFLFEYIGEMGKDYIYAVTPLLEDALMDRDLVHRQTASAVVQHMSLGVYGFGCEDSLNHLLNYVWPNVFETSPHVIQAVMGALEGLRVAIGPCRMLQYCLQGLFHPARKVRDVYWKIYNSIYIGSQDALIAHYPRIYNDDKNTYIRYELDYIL
UniProt O43143: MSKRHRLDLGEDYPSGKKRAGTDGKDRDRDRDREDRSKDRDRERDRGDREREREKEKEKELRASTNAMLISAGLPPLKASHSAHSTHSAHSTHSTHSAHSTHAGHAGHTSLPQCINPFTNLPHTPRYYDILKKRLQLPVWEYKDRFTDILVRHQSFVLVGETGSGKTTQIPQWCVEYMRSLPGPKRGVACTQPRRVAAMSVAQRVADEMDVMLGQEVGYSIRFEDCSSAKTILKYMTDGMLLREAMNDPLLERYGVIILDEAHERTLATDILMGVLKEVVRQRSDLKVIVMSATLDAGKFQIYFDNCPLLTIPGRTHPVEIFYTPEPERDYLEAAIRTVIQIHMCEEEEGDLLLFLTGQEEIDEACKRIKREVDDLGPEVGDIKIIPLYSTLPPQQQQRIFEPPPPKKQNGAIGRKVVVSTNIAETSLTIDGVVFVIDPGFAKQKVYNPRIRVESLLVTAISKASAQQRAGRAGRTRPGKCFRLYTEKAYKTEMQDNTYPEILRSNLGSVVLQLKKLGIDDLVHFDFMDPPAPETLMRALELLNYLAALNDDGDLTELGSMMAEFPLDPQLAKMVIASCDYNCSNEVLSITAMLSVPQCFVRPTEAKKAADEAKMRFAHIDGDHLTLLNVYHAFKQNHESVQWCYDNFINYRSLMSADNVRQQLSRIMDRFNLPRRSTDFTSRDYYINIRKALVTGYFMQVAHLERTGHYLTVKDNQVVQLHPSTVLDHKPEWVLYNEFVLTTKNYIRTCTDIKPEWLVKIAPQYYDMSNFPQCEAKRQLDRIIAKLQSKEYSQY

B1: splicing factor TAT-SF1 (endogenous, HEK293F, in the DDX42-U2 complex) (protein, UniProt O43719 1-755)
chain: MSGTNLDGNDEFDEQLRMQELYGDGKDGDTQTDAGGEPDSLGQQPTDTPYEWDLDKKAWFPKITEDFIATYQANYGFSNDGASSSTANVEDVHARTAEEPPQEKAPEPTDARKKGEKRKAESGWFHVEEDRNTNVYVSGLPPDITVDEFIQLMSKFGIIMRDPQTEEFKVKLYKDNQGNLKGDGLCCYLKRESVELALKLLDEDEIRGYKLHVEVAKFQLKGEYDASKKKKKCKDYKKKLSMQQKQLDWRPERRAGPSRMRHERVVIIKNMFHPMDFEDDPLVLNEIREDLRVECSKFGQIRKLLLFDRHPDGVASVSFRDPEEADYCIQTLDGRWFGGRQITAQAWDGTTDYQVEETSREREERLRGWEAFLNAPEANRGLRRSDSVSASERAGPSRARHFSEHPSTSKMNAQETATGMAFEEPIDEKKFEKTEDGGEFEEGASENNAKESSPEKEAEEGCPEKESEEGCPKRGFEGSCSQKESEEGNPVRGSEEDSPKKESKKKTLKNDCEENGLAKESEDDLNKESEEEVGPTKESEEDDSEKESDEDCSEKQSEDGSEREFEENGLEKDLDEEGSEKELHENVLDKELEENDSENSEFEDDGSEKVLDEEGSEREFDEDSDEKEEEEDTYEKVFDDESDEKEDEEYADEKGLEAADKKAEEGDADEKLFEESDDKEDEDADGKEVEDADEKLFEDDDSNEKLFDEEEDSSEKLFDDSDERGTLGGFGSVEEGPLSTGSSFILSSDDDDDDI
B2: splicing factor TAT-SF1 (endogenous, HEK293F, in the DDX42-U2 complex), O43719 1-755 (protein)
chain: MSGTNLDGNDEFDEQLRMQELYGDGKDGDTQTDAGGEPDSLGQQPTDTPYEWDLDKKAWFPKITEDFIATYQANYGFSNDGASSSTANVEDVHARTAEEPPQEKAPEPTDARKKGEKRKAESGWFHVEEDRNTNVYVSGLPPDITVDEFIQLMSKFGIIMRDPQTEEFKVKLYKDNQGNLKGDGLCCYLKRESVELALKLLDEDEIRGYKLHVEVAKFQLKGEYDASKKKKKCKDYKKKLSMQQKQLDWRPERRAGPSRMRHERVVIIKNMFHPMDFEDDPLVLNEIREDLRVECSKFGQIRKLLLFDRHPDGVASVSFRDPEEADYCIQTLDGRWFGGRQITAQAWDGTTDYQVEETSREREERLRGWEAFLNAPEANRGLRRSDSVSASERAGPSRARHFSEHPSTSKMNAQETATGMAFEEPIDEKKFEKTEDGGEFEEGASENNAKESSPEKEAEEGCPEKESEEGCPKRGFEGSCSQKESEEGNPVRGSEEDSPKKESKKKTLKNDCEENGLAKESEDDLNKESEEEVGPTKESEEDDSEKESDEDCSEKQSEDGSEREFEENGLEKDLDEEGSEKELHENVLDKELEENDSENSEFEDDGSEKVLDEEGSEREFDEDSDEKEEEEDTYEKVFDDESDEKEDEEYADEKGLEAADKKAEEGDADEKLFEESDDKEDEDADGKEVEDADEKLFEDDDSNEKLFDEEEDSSEKLFDDSDERGTLGGFGSVEEGPLSTGSSFILSSDDDDDDI
B3: DDX46 (endogenous, HeLa, in the DHX15-U2 complex) (protein, UniProt Q7L014 1-1031)
chain: MGRESRHYRKRSASRGRSGSRSRSRSPSDKRSKRGDDRRSRSRDRDRRRERSRSRDKRRSRSRDRKRLRRSRSRERDRSRERRRSRSRDRRRSRSRSRGRRSRSSSPGNKSKKTENRSRSKEKTDGGESSKEKKKDKDDKEDEKEKDAGNFDQNKLEEEMRKRKERVEKWREEQRKKAMENIGELKKEIEEMKQGKKWSLEDDDDDEDDPAEAEKEGNEMEGEELDPLDAYMEEVKEEVKKFNMRSVKGGGGNEKKSGPTVTKVVTVVTTKKAVVDSDKKKGELMENDQDAMEYSSEEEEVDLQTALTGYQTKQRKLLEPVDHGKIEYEPFRKNFYVEVPELAKMSQEEVNVFRLEMEGITVKGKGCPKPIKSWVQCGISMKILNSLKKHGYEKPTPIQTQAIPAIMSGRDLIGIAKTGSGKTIAFLLPMFRHIMDQRSLEEGEGPIAVIMTPTRELALQITKECKKFSKTLGLRVVCVYGGTGISEQIAELKRGAEIIVCTPGRMIDMLAANSGRVTNLRRVTYVVLDEADRMFDMGFEPQVMRIVDNVRPDRQTVMFSATFPRAMEALARRILSKPIEVQVGGRSVVCSDVEQQVIVIEEEKKFLKLLELLGHYQESGSVIIFVDKQEHADGLLKDLMRASYPCMSLHGGIDQYDRDSIINDFKNGTCKLLVATSVAARGLDVKHLILVVNYSCPNHYEDYVHRAGRTGRAGNKGYAYTFITEDQARYAGDIIKALELSGTAVPPDLEKLWSDFKDQQKAEGKIIKKSSGFSGKGFKFDETEQALANERKKLQKAALGLQDSDDEDAAVDIDEQIESMFNSKKRVKDMAAPGTSSVPAPTAGNAEKLEIAKRLALRINAQKNLGIESQDVMQQATNAILRGGTILAPTVSAKTIAEQLAEKINAKLNYVPLEKQEEERQDGGQNESFKRYEEELEINDFPQTARWKVTSKEALQRISEYSEAAITIRGTYFPPGKEPKEGERKIYLAIESANELAVQKAKAEITRLIKEELIRLQNSYQPTNKGRYKVL
B4: TAT-SF1 (endogenous, HeLa, in the DHX15-U2 complex) (protein, UniProt O43719 1-755)
chain: MSGTNLDGNDEFDEQLRMQELYGDGKDGDTQTDAGGEPDSLGQQPTDTPYEWDLDKKAWFPKITEDFIATYQANYGFSNDGASSSTANVEDVHARTAEEPPQEKAPEPTDARKKGEKRKAESGWFHVEEDRNTNVYVSGLPPDITVDEFIQLMSKFGIIMRDPQTEEFKVKLYKDNQGNLKGDGLCCYLKRESVELALKLLDEDEIRGYKLHVEVAKFQLKGEYDASKKKKKCKDYKKKLSMQQKQLDWRPERRAGPSRMRHERVVIIKNMFHPMDFEDDPLVLNEIREDLRVECSKFGQIRKLLLFDRHPDGVASVSFRDPEEADYCIQTLDGRWFGGRQITAQAWDGTTDYQVEETSREREERLRGWEAFLNAPEANRGLRRSDSVSASERAGPSRARHFSEHPSTSKMNAQETATGMAFEEPIDEKKFEKTEDGGEFEEGASENNAKESSPEKEAEEGCPEKESEEGCPKRGFEGSCSQKESEEGNPVRGSEEDSPKKESKKKTLKNDCEENGLAKESEDDLNKESEEEVGPTKESEEDDSEKESDEDCSEKQSEDGSEREFEENGLEKDLDEEGSEKELHENVLDKELEENDSENSEFEDDGSEKVLDEEGSEREFDEDSDEKEEEEDTYEKVFDDESDEKEDEEYADEKGLEAADKKAEEGDADEKLFEESDDKEDEDADGKEVEDADEKLFEDDDSNEKLFDEEEDSSEKLFDDSDERGTLGGFGSVEEGPLSTGSSFILSSDDDDDDI

Columns and labels:
[1] = biological target: SF3B1 (endogenous, HEK293F, in the DDX42-U2 complex) (human (endogenous in HEK293F)) (UniProt O75533); assay: cryo-EM structure; DDX42-U2 complex: Flag-DDX42 expressed in HEK293F, anti-Flag selection of endogenous complexes, glycerol gradient with 0–0.1% glutaraldehyde; 2.7 Å
[2] = biological target: T1, Flag-DDX42 (full-length) (human), Q86XP3; assay: as above; conditions: remark: other sources report otherwise
T1 chain: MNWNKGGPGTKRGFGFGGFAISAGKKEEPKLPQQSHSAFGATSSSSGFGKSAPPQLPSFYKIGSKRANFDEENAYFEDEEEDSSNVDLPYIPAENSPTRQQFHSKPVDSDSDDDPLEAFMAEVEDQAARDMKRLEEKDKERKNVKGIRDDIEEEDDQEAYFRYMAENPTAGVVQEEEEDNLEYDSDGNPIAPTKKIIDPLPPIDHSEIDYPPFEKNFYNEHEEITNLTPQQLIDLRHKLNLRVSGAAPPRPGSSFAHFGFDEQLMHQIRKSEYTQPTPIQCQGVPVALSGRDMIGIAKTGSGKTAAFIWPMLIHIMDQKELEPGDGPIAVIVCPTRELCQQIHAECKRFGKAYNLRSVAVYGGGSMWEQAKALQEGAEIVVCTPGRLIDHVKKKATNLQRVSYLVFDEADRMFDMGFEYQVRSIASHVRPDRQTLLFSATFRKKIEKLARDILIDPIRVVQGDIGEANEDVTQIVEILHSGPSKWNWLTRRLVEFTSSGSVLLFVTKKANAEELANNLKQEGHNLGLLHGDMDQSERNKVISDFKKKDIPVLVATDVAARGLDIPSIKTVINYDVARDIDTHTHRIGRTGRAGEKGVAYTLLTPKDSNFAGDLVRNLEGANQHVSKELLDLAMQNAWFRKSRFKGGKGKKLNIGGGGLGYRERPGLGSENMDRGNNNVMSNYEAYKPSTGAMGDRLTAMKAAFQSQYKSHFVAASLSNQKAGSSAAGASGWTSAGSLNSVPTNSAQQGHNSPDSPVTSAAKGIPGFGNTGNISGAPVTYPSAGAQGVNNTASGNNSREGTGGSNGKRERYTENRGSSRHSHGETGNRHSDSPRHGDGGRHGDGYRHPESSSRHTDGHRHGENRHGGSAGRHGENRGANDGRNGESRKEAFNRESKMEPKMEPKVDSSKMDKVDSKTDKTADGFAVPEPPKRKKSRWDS

[3] = biological target: Flag-DHX15 (full-length) (human) (UniProt O43143); assay: cryo-EM structure; DHX15-U2 complex purified by Flag-DHX15 from HeLa; reconstruction of about 5 Å; atomic model of 17S U2 snRNP docked into the low-pass filtered map; DHX15 itself not identified in the map

| Binder | binding [3] | further results |
| --- | --- | --- |
| B1 | – | binding [1]: binds |
| B2 | – | binding [2]: binds |
| B3 | binds | – |
| B4 | binds | – |
